Results from PubChem BioAssay AID1347075 (National Center for Advancing Translational Sciences (NCATS), 2019).
Among all 400,000 compounds or so, about 5,500 (1.4%) were called active. Inconclusive results, whose numbers are uncertain, are shown with a selection of clear calls. Calls follow the shape of the dose curve; as a rule, active = well fitted cell-killing curve with a large enough effect; inconclusive = small, poorly fitted or top-dose-only effect, or effect the other way; inactive = flat fitted curve, though single readings scatter. Potencies beside an inconclusive call are fits to weak or partial responses and may not hold up.

Assay: qHTS assay for MDR1-selective chemotherapeutics: Primary screen using the parental adenocarcinoma cell KB-3-1; also: nearly all actives have a fitted effect of over 60% in size
Conditions: KB-3-1 viability, CellTiter-Glo ATP luminescence, 72 h; activity change, negative = cytotoxic: at 46.1 µM (top of the series)
Procedure, shortened: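 Using CellTiter-Glo luminescence, growth of non-resistant KB-3-1 adenocarcinoma cells is assessed 72 h after pin-tool compound addition at 37 °C. Normalized responses across the concentration series yield fitted curves.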
% is scaled to controls: 0 for no effect and ±100 for the full control effect; potency is read from the fitted curve at half-maximal effect.

SMILES	activity change, negative = cytotoxic	Potency
COCCn1c(SCC(=O)Nc2ccc(F)cc2)nc2c(c1=O)SCC2	inactive: 3.16%	–
Cc1ccnc2ccc(-c3nc4ccccc4o3)cc12	–	inconclusive: 23.1 µM [cytotoxic, partial curve]
O=C(Nc1ccc(OC(F)(F)F)cc1)C1=NCCN1	–	inconclusive: 13 µM [rising, partial curve, poor fit]
N#CCc1nn(-c2ccccc2)c2ncnc(N)c12	inactive: 7.23%	–
Cc1cccc(C)c1Nc1nnc(SCC(=O)NC(=O)c2cccn2C)s1	inactive: -0.575%	–
Oc1ccc2ccccc2c1CNc1ccc2ccccc2c1	–	inconclusive: 29.1 µM [cytotoxic, single point]
Cc1c(NC(=O)C(C)N2C(=O)NC3(CCC(C)CC3)C2=O)c(=O)n(-c2ccccc2)n1C (stereo not given)	–	inconclusive: 3.66 µM [rising, full curve, poor fit]
Cc1ccc2c(c1)C(=O)N1[C@H]3c4cc(Cl)ccc4OC[C@@H]3[C@H](c3ccccc3)[C@]1(C)C(=O)N2	–	inconclusive: 29.1 µM [cytotoxic, single point]
C[C@@H]1CN([C@@H](C)CO)C(=O)c2cc(C#Cc3ccccc3)cnc2O[C@@H]1CN(C)Cc1ccccn1	inactive: -2.72%	–
Cc1ccc2c(c1C)-c1c(ccc(C)c1C)C(=O)C2=O	–	active: 3.26 µM
CCOc1ccc(NC(=O)C2CCCN2C(=O)Oc2ccccc2)cc1 (stereo not given)	inconclusive: -34% [cytotoxic]	–
CCOc1ccc(CNC(=O)CCCn2ccc3cc(S(=O)(=O)N4CCCC4)ccc32)cc1	–	inconclusive: 18.4 µM [cytotoxic, single point]
CCCCNC(=S)N1CCC(Cc2ccccc2)CC1	–	inconclusive: 20.6 µM [cytotoxic, single point]
Cc1ccc(C(=O)Nc2nc(-c3ccccc3)c(-c3ccccc3)o2)cc1	–	inconclusive: 32.6 µM [cytotoxic, single point]
COc1ccc(C[C@H]2CN3C(=NC[C@H]3Cc3ccccc3)N2CCNC(=O)c2ccc(C)c(Br)c2)cc1	–	inconclusive: 18.4 µM [cytotoxic, single point]
CSc1nc(N)nc2c1ncn2CC(=O)N1CCN(Cc2c(C)cc(C)cc2C)CC1	–	inconclusive: 2.31 µM [cytotoxic, partial curve, poor fit]
COc1cccc(/C=N/NC(=O)c2cnccn2)c1O	inactive: -1.65%	–
CCNc1nc(CC)nc2c1oc1ccccc12	inactive: 0.597%	–
N#C/C(=N\Nc1cccc([N+](=O)[O-])c1)C(=O)c1ccc(Br)cc1	–	active: 3.66 µM
CC(=O)NC/C(C)=N\Nc1ccc([N+](=O)[O-])cc1	–	inconclusive: 29.1 µM [cytotoxic, single point]
CCOC(=O)NCc1ccc2[nH]c(C)cc2c1	inconclusive: 7.65%	–
CCC(C)(C)c1ccc(OCCCC[n+]2cccc(C)c2C)c(C(C)(C)CC)c1	–	inconclusive: 29.1 µM [cytotoxic, single point]
O=C1CC[C@@]23CCCN2C(=O)CCCC3C1 (stereo not given in full)	inactive: 0%	–
Cc1ccc(S(=O)(=O)N2CCCC2CNC(=O)C(=O)Nc2ccc(F)cc2)cc1 (stereo not given)	–	inconclusive: 29.1 µM [cytotoxic, single point]

Some of the entries above in another layout:
SMILES | activity change, negative = cytotoxic | Potency
COc1ccc(C[C@H]2CN3C(=NC[C@H]3Cc3ccccc3)N2CCNC(=O)c2ccc(C)c(Br)c2)cc1 | – | inconclusive: 18.4 µM [cytotoxic, single point]
CSc1nc(N)nc2c1ncn2CC(=O)N1CCN(Cc2c(C)cc(C)cc2C)CC1 | – | inconclusive: 2.31 µM [cytotoxic, partial curve, poor fit]
COc1cccc(/C=N/NC(=O)c2cnccn2)c1O | inactive: -1.65% | –
CCNc1nc(CC)nc2c1oc1ccccc12 | inactive: 0.597% | –

Later entries

SMILES	activity change, negative = cytotoxic	Potency
COc1ccc(CN(C)CC2CCCN(CCc3ccc(Cl)cc3)C2)cc1OC (stereo not given)	–	inconclusive: 18.4 µM [cytotoxic, partial curve, poor fit]
CN1C[C@H](C(=O)NC2(C)OC3(O)[C@@H]4CCCN4C(=O)[C@H](Cc4ccccc4)N3C2=O)CC2c3cccc4[nH]cc(c34)C[C@H]21 (stereo not given in full)	inactive: -0.0429%	–
Cc1nn(C)c(Nc2ccc(Br)cc2)c1Br	–	inconclusive: 9.2 µM [cytotoxic, partial curve]
CC(C)(C)OC(=O)N1CCC(c2c(C(=O)N3CCN(c4ncccn4)CC3)cnn2-c2ccc(F)cc2F)CC1	inactive: 5.49%	–
COc1ccc(CN2C(=O)c3ccccc3C(/C=N\OCc3ccc(C)cc3)C2=O)cc1 (stereo not given)	–	active: 20.6 µM
Clc1ccc(-c2nnc(CSc3nnc(-c4cccs4)n3Cc3ccccc3)o2)cc1	–	inconclusive: 8.2 µM [cytotoxic, partial curve, poor fit]
CCc1ccc(-c2cc(C)no2)cc1S(=O)(=O)N1CCN(c2ccc(C(C)=O)cc2)CC1	–	inconclusive: 7.31 µM [cytotoxic, partial curve]
Cc1cc(F)ccc1C(O)c1ncc(-c2cccc(OCc3ccccc3)c2)[nH]1 (stereo not given)	–	inconclusive: 29.1 µM [cytotoxic, partial curve, poor fit]
Cn1c(=O)c([N+](=O)[O-])c(-n2ccnc2)c2ccccc21	–	inconclusive: 18.4 µM [cytotoxic, single point]
O=S(=O)(c1cc(-c2nnc(-c3ccc(Br)cc3)o2)ccc1Br)N1CCCCCC1	–	inconclusive: 18.4 µM [cytotoxic, single point]
COc1ccc(CN2CCN(C(=O)c3cccc4ccccc34)CC2)cc1OC	inactive: 14.5%	–
COc1cc(/C=C2/SC(=O)N(Cc3ccccc3)C2=O)ccc1OCc1ccncc1	–	inconclusive: 29.1 µM [cytotoxic, single point]
C[C@@H]1CCCCO[C@@H](CN(C)Cc2ccc(C(F)(F)F)cc2)[C@@H](C)CN([C@H](C)CO)C(=O)c2cc(N(C)C)ccc2O1	–	inconclusive: 29.1 µM [cytotoxic, single point]
CC1=C/C(=N\N=C2\NC(=O)C(CC(=O)Nc3ccccc3)S2)CC(C)(C)C1 (stereo not given)	inactive: 0.87%	–
O=C(NCCCCCCNC(=O)OCc1ccccc1)OCc1ccccc1	inactive: 3.42%	–
CCn1nc(C)c(C(=O)Nc2cc(Oc3cc(C)cc(C)c3)cc([N+](=O)[O-])c2)c1C	–	active: 18.4 µM
O=C(CN1C(=O)C2C3C=CC(C3)C2C1=O)Nc1nncs1 (stereo not given)	–	inconclusive: 20.6 µM [rising, single point]
Cc1ccc2c(CNC3CCC(C)CC3)c(C(=O)O)n(Cc3cccc(F)c3)c2c1 (stereo not given)	–	inconclusive: 16.4 µM [cytotoxic, single point]
CCSc1nc(=O)c2c(n1C)NC(=O)CC2c1ccc(O)cc1OC (stereo not given)	inactive: 6.35%	–
COc1ccc(N2CCN(C(=O)CCCN3C(=O)c4cccc5cccc(c45)C3=O)CC2)cc1	inactive: -16.3%	–
CCN(CC)CCn1c2c(c(SCC(=O)Nc3ccc4c(c3)OCCO4)nc1=O)CCCC2	–	inconclusive: 23.1 µM [rising, single point]
COc1ccc(C2CC(=O)N(CC(=O)Nc3ccc(C(F)(F)F)cc3)c3ccccc3S2)cc1 (stereo not given)	–	inconclusive: 16.4 µM [cytotoxic, single point]
Cc1ccc(NC(=O)C2CCN(S(=O)(=O)c3ccc(N4CCCC4=O)cc3)CC2)cc1Cl	–	inconclusive: 9.2 µM [cytotoxic, partial curve, poor fit]
O=C(COC(=O)CCCN1C(=O)c2cccc3cccc(c23)C1=O)Nc1cccc(Br)c1	inconclusive: -56%	–

SMILES	activity change, negative = cytotoxic	Potency
O=C(NC1=NCCS1)c1ccc(F)c(S(=O)(=O)N2CCOCC2)c1	inactive: -2.07%	–
O=C(Nc1ccc(Cl)cn1)c1cccc2c(Br)cccc12	–	active: 11.6 µM
COC(=O)c1sc(-c2cccs2)cc1NC(=O)/C=C/C(=O)O	–	inconclusive: 20.6 µM [cytotoxic, single point]
CCOc1ccc(OCCCC(=O)ON=C(N)c2ccccc2C)cc1	inactive: 7.7%	–
CC[C@]1(c2cccc(C)c2)C(=O)N(C(=O)OC)N1C(=O)OC	inactive: 2.72%	–
Cn1cc(C(=O)NCc2ccccc2)c(=O)c2cc(S(=O)(=O)N3CCCCCC3)ccc21	inactive: 3.04%	–
N=C1SCC(=O)N1c1ccccc1Cl	inactive: -5.13%	–
O=C(N/N=C/c1ccc[nH]1)c1cc(-c2cccs2)nc2ccccc12	–	inconclusive: 29.1 µM [cytotoxic, single point]
COc1cccc(CNC(=O)Cc2ccc(-c3ccccc3)cc2)c1	–	inconclusive: 29.1 µM [cytotoxic, single point]
CSc1cc(-c2ccccc2)n(Cc2ccccc2Cl)c(=O)c1C#N	–	active: 4.61 µM
CN(c1ccccc1)c1ccc(/C=N/N2CCOCC2)cc1	inactive: 3.89%	–
O=C(NCc1ccccc1)[C@@H]1CCCN1C(=O)[C@@H]1CCCN1C(=O)c1cccs1	inconclusive: 8.27%	–
Cc1ccccc1Oc1nc2c(c(=O)n(C)c(=O)n2C)n1Cc1ccc(Br)cc1	inactive: -1.09%	–
Cc1ccc(-c2nn(-c3ccccc3)cc2C(=O)Nc2cccc(S(=O)(=O)NC3=NCCC3)c2)cc1	inactive: -0.339%	–
COc1ccc(NC(=O)Nc2nc(C(N)Cc3ccc(C(F)(F)F)cc3)cs2)cc1 (stereo not given)	–	inconclusive: 18.4 µM [cytotoxic, single point]
COc1ccccc1CNC(=O)C1CCN(Cc2nc(-c3cccc(Cl)c3)oc2C)CC1	–	inconclusive: 29.1 µM [cytotoxic, single point]
O=S(=O)(c1ccc(N2CCN(Cc3ccccc3)CC2)nc1)N1CCCC1	–	inconclusive: 32.6 µM [cytotoxic, single point]
Cc1cccc(-c2nnc(SCC#N)n2-c2cccc(Cl)c2)c1	inactive: 2.43%	–
COc1ccc(-c2cn(-c3ccc(C)cc3)c(=O)n2CC(=O)Nc2ccc(OC)cc2OC)cc1	–	inconclusive: 29.1 µM [cytotoxic, single point]
COc1cc2nc(NCCCN3CCN(C)CC3)n3nc(-c4ccccc4)nc3c2cc1OC	–	inconclusive: 29.1 µM [cytotoxic, single point]
CC1(C)Cc2c(sc(NC(=O)c3ccc(C(=O)c4ccccc4)cc3)c2C(N)=O)C(C)(C)N1	–	inconclusive: 20.6 µM [cytotoxic, single point]
CCOC(=O)[C@H]1[C@H]2COc3ccc(Br)cc3[C@@H]2N2C(=O)CN(Cc3ccc(F)cc3)C(=O)[C@@]12C	–	inconclusive: 29.1 µM [cytotoxic, single point]
